In PMC12529230, “The Lrs14‐Like AbfR1 Homolog From Metallosphaera sedula Is a Nucleoid‐Organizing Protein” (MicrobiologyOpen, 2025):
Results are given in words; binding and its absence hold for the method and conditions named. Some results given as binding are weak or reduced against the parent protein; the word gives no strength.

Molecular target: AbfR1 Ms (endogenous, M. sedula cell extract) (Metallosphaera sedula (endogenous in M. sedula DSM5348)) (UniProt A4YIR2)
Assay: SDS-PAGE and Western blot (SDS-resistant oligomers); M. sedula cell extracts from four growth phases, without and with 100 mM DTT, anti-AbfR1 Ms immunoblot

binding: binds
B1: AbfR1 Ms (recombinant, C-terminal His-tag) (natural protein, Metallosphaera sedula, UniProt A4YIR2 1-115, looked up)
chain: MITELAERNILLKRFLMVGYGLSEADVEAFIRIIKGSEGRDVDYIASELGISKSRASLILKRLSDAGLVTKQKSTGSKGGRPKYVYRVDRNEVIEKMKIRASELCSDLSSIISGL
notes: 115 amino acids, estimated MW 12.7 kDa; codon-optimized synthetic gene fragment (446 bp) cloned NdeI/XhoI into pET24a; No tag cleavage is described; A disulfide bridge between the two chains is proposed (C105, from an AlphaFold model and DTT sensitivity); also called Lrs14-like AbfR1 homolog from Metallosphaera sedula; HhcR; source: E. coli Rosetta (DE3), pET24a; purified (heat treatment 70°C, …)
